In paper PMC3538345:
Results are given in words; binding and its absence hold for the method and conditions named. Some binding calls cover weakened binding; strength is not graded here.

Target: T1, C2H2 Zinc finger protein Ken (Drosophila) (UniProt O77459)
T1 sequence: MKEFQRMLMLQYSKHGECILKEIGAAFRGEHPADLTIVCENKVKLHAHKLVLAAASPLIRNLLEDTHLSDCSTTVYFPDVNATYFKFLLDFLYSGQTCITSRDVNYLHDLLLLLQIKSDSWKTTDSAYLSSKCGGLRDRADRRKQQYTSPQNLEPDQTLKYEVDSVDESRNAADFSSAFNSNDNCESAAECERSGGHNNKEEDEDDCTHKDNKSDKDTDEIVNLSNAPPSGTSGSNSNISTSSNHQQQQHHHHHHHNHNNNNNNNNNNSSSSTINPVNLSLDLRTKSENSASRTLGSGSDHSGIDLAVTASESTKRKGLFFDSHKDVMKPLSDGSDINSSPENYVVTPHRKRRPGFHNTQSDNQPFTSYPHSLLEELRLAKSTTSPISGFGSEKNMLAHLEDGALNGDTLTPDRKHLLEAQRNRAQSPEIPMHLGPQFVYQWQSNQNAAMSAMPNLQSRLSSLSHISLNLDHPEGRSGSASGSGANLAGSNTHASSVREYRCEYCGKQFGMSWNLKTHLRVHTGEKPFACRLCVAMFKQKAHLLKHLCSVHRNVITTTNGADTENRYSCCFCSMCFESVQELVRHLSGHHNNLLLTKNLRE
Test: two-hybrid; yeast two-hybrid analysis; bait and prey not told (Figure S5B and not shown)

binding: binds
B1: Lolal (protein, UniProt Q7KRI2 1-127)
chain: MMSSDQQFFLKWNDFQTNMVTSFRHLRDEKSFTDVTLACEGQTCKAHKMVLSACSPYFKALLEENPSKHPIIILKDVSYIHLQAILEFMYAGEVNVSQEQLPAFLKTADRLKVKGLAETPSSIKREG
